Experimental data reported in article doi:10.1101/483123.
Results are given in words; binding and its absence hold for the method and conditions named. A result given as binding can be weak or reduced; the word gives no strength. For some assays here: Binding seen in cells or lysates may run through a third protein. For some assays here: Tags and fused reporters may be left off the sequences shown.

Columns and labels:
[1] = target: full-length FLAG-tagged PorM (Porphyromonas gingivalis ATCC33277) (UniProt B2RLE8); experiment: co-IP
[2] = target: full-length FLAG-tagged PorN (Porphyromonas gingivalis ATCC33277) (UniProt B2RLE7); experiment: co-IP
[3] = target: FLAG-tagged PorM periplasmic domain, exported to the periplasm (Porphyromonas gingivalis ATCC33277) (UniProt B2RLE8); experiment: co-IP
[4] = target: T18 fusion to the PorM periplasmic domain (Porphyromonas gingivalis ATCC33277) (UniProt B2RLE8); experiment: two-hybrid
[5] = target: T18 fusion to PorN (lacking the signal peptide) (Porphyromonas gingivalis ATCC33277); experiment: two-hybrid

| Binder | binding [1] | binding [2] | binding [3] | binding [4] | binding [5] |
| --- | --- | --- | --- | --- | --- |
| periplasmically-targeted VSV-G-tagged Hbp35 CTD (domain or fragment, UniProt B2RII3 266-344) AGQESLDKAEPTATEQIVATPSVKAYVQNGKIVVEEEYSKMEVFNATGQLVKNESLVPGVYVVRITANGVMHFLKVLVP | binds | binds | binds | – | – |
| T25-Hbp35 CTD (C-terminal domain of the Hbp35 hemin-binding protein) (domain or fragment, UniProt B2RII3 266-344) AGQESLDKAEPTATEQIVATPSVKAYVQNGKIVVEEEYSKMEVFNATGQLVKNESLVPGVYVVRITANGVMHFLKVLVP | – | – | – | binds | binds |
